{"source": "paper PMC8057602", "key": {"[1]": {"biological_target": "CcSSP1 (small secreted protein of Ciboria carunculoides), yeast two-hybrid bait in pGBKT7 (Ciboria carunculoides)", "experiment": "two-hybrid; Matchmaker Gold yeast two-hybrid system; CcSSP1 in pGBKT7 as bait, candidates in pGADT7 as prey; SD/-His/-Leu/-Trp/-Ade and the same + X-alpha-Gal + 200 ng/ml AbA + 10 mM 3-AT"}, "[2]": {"biological_target": "CcSSP1 homolog of S. shiraiana (Scleromitrula shiraiana)", "experiment": "two-hybrid; in yeast; data not published; bait and prey not told"}}, "note": "These are yes or no findings as the source states them, for the method shown. A result given as binding can be weak or reduced; the word gives no strength.", "data": [{"binder": "AtPR1 (PR1 in Arabidopsis thaliana), yeast two-hybrid prey (protein, UniProt P33154 1-161) MNFTGYSRFLIVFVALVGALVLPSKAQDSPQDYLRVHNQARGAVGVGPMQWDERVAAYARSYAEQLRGNCRLIHSGGPYGENLAWGSGDLSGVSAVNMWVSEKANYNYAANTCNGVCGHYTQVVWRKSVRLGCAKVRCNNGGTIISCNYDPRGNYVNEKPY", "values": [{"measurement": "binding", "setting": "[1]", "value": "binds"}, {"measurement": "binding", "setting": "[2]", "value": "binds"}]}]}
